Experimental data taken from patent publication US12269021B2, “Artificial protein catalyst” (Glytech, Inc., priority 2019, dated 2025).
At least one read-out could not be matched to a standard name with certainty.

By UniProt entry, the sequences of proteins in these tests, tags left out. Residues count along the entry.
UniProt P02768, 25-609: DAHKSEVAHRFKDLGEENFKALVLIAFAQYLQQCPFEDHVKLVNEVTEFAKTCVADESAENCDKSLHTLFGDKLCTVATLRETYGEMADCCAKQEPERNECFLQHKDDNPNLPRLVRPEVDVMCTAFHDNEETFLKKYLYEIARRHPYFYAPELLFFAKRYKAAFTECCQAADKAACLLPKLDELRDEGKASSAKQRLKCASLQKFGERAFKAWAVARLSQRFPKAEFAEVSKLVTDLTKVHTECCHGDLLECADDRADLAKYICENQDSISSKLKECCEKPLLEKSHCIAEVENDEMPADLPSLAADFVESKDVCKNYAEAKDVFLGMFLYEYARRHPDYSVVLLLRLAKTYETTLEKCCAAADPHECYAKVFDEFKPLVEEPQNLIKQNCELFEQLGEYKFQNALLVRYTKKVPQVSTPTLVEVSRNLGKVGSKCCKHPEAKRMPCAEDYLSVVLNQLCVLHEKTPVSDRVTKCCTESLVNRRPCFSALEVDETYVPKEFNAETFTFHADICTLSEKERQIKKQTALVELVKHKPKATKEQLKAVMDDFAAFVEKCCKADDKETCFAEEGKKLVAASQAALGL

Biological target: T1, GArM-Ru complex (Homo sapiens, UniProt P02768)
T1 construct: made in house
Assay: kinetic experiment, activation of prodrugs 1g and 1h by GArM-Ru complex
Format: biochemical
Conditions: RCM activation by GArM-Ru complex

For `C=CC(=O)Oc1cc(OC/C=C(\C)CC/C=C(\C)CCC=C(C)C)ccc1C=C` [1h], the “kcat/KM compared to 1g” value was “at least 1500 folds”.
